Measured data: PubChem BioAssay AID504808 (Drosophila RNAi Screening Center, 2011)
Test: 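Genes whose loss lifts activity of an E2F-responsive reporter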 (primary screen). Cells: Drosophila S2 cells. Reagents: long dsRNA against Drosophila genes. Read-out: 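Dual luciferase plate measurements; E2F-specific signal taken as firefly over Renilla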. Scale: E2F firefly: higher = more E2F reporter activity; Renilla normaliser: higher = more normaliser reporter signal. Rule for the call: 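Called active if the normalised E2F reporter went up by over 50%; the cutoff is arbitrary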.
In all, the deposit lists about 21,000 reagents; shown is a random part of those that have a named target and a result. In the full data, 18 (0.084%) are marked active. 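Raw counts without plate normalisation, one of two replicates; the ratio scores behind the calls were not deposited.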 Reagents against one gene are numbered here. Names joined by + are all predicted targets of the reagent. No sequences are given here. Not given: the amount of reagent, the time to read-out.

no.	target	reagent no.	E2F firefly, rep 1	Renilla normaliser, rep 1	Outcome
1	CG13217	1	86518	4174	inactive
2	CG6927	1	7835	808	inactive
3	CG4853	1	85341	4273	inactive
4	Cyp6a16Psi (retired record)	1	1.51e5	5205	inactive
5	AnxB10 (Annexin B10)	1	1.42e5	5807	inactive
6	Vha16-5 (Vacuolar H[+] ATPase 16kD subunit 5)	1	1.73e5	5501	inactive
7	CG11475	1	81142	3593	inactive
8	CG31388	1	73865	3358	inactive
9	CG11670	1	1.08e5	5872	inactive
10	Cph (Chronophage)	1	77392	2448	inactive
11	Cph (Chronophage)	2	53402	4074	inactive
12	cwo (clockwork orange)	1	94916	6226	inactive
13	CG42506 (retired record) + CG43759	1	1.57e5	5489	inactive
14	CG42506 (retired record) + CG43759	2	1.32e5	6840	inactive
15	CG15144	1	1.04e5	3826	inactive
16	CG14052	1	63381	3254	inactive
17	CG14052	2	1.33e5	6082	inactive
18	gny (garnysstan)	1	81015	3784	inactive
19	wuho	1	97911	4810	inactive
20	CG6583	1	96218	3879	inactive
21	CG9877	1	99533	4144	inactive
22	Tpi (Triose phosphate isomerase)	1	2142	944	inactive
23	Not3 (CCR4-NOT transcription complex subunit 3)	1	80477	4132	inactive
24	Cpr97Ea (Cuticular protein 97Ea)	1	1.24e5	6186	inactive
25	Ten-m (Tenascin major)	1	1.37e5	8093	inactive
26	Ten-m (Tenascin major)	2	1.44e5	7731	inactive
27	Tsr1 (Tsr1 ribosome assembly factor)	1	76525	3263	inactive
28	ms(3)K81 (male sterile (3) K81)	1	1.17e5	6237	inactive
29	tut (tumorous testis)	1	1.25e5	4304	inactive
30	CG7341	1	65028	3368	inactive
31	Nepl12 (Neprilysin-like 12)	1	1.51e5	6079	inactive
32	CG9213	1	8940	812	inactive
33	Ccn	1	1.14e5	4294	inactive
34	Ccn	2	1.15e5	4975	inactive
35	Ccn	3	70239	3738	inactive
36	Ccn	4	1.29e5	7271	inactive
37	CG13690	1	1.74e5	5830	inactive
38	CG8478	1	1.31e5	5506	inactive
39	PpV (Protein phosphatase V)	1	1.25e5	5905	inactive
40	SCAP (SREBP cleavage activating protein)	1	1.05e5	4363	inactive
41	SCAP (SREBP cleavage activating protein)	2	1.16e5	4874	inactive
42	CG2065	1	1.43e5	4244	inactive
43	Gr23a (Gustatory receptor 23a)	1	1.57e5	5050	inactive
44	Cdk4 (Cyclin-dependent kinase 4)	1	30697	158	inactive
45	CG14683	1	84041	3655	inactive
46	Nca (Neurocalcin)	1	1.27e5	5900	inactive
47	Dgkepsilon (Diacyl glycerol kinase epsilon)	1	134	33	inactive
48	Mtpalpha (Mitochondrial trifunctional protein alpha subunit)	1	73164	3512	inactive
49	CG9452	1	1.42e5	7762	inactive
50	Gr64f (Gustatory receptor 64f)	1	99703	4064	inactive
51	Toll-6	1	1.56e5	6582	inactive
52	CG13871	1	1.39e5	4469	inactive
53	Rad1 + Sws1	1	1.77e5	6209	inactive
54	MTPAP (mitochondrial poly(A) polymerase)	1	1.15e5	5068	inactive
55	Pvr (PDGF- and VEGF-receptor related)	1	93884	3971	inactive
56	CG15554	1	1.25e5	7404	inactive
57	pdm3 (pou domain motif 3)	1	1.50e5	5021	inactive
58	pdm3 (pou domain motif 3)	2	1.52e5	5176	inactive
59	fsd (fates-shifted)	1	1.14e5	4959	inactive
60	CG11155	1	72030	2179	inactive
61	CG11155	2	1841	908	inactive
62	RpL37A (Ribosomal protein L37A)	1	1.28e5	5177	inactive
63	Dph2 (Diphthamide biosynthesis 2)	1	62221	3369	inactive
64	alphaTub67C (alpha-Tubulin at 67C)	1	54618	3117	inactive
65	Jon25Bii (Jonah 25Bii)	1	1.35e5	4634	inactive
66	ato (atonal)	1	1.11e5	4595	inactive
67	TMEM216 + CG11760	1	75677	4222	inactive
68	Mcr (Macroglobulin complement-related)	1	1.04e5	3866	inactive
69	CG10973	1	73192	3888	inactive
70	CG32425	1	83905	5896	inactive
71	CG32425	2	71321	3283	inactive
72	Skp2 + CG1103	1	80740	3849	inactive
73	CG34398	1	1.37e5	5575	inactive
74	CG34398	2	1.48e5	5125	inactive
75	CG34398	3	86926	3932	inactive
76	CG34398	4	1.61e5	4881	inactive
77	pain (painless)	1	92716	3456	inactive
78	GstD4 (Glutathione S transferase D4)	1	1.66e5	7146	inactive
79	CG14177 (retired record)	1	92276	4318	inactive
80	Tsp42Ec (Tetraspanin 42Ec)	1	1.53e5	5417	inactive
81	Mmp2 (Matrix metalloproteinase 2)	1	1.49e5	5530	inactive
82	Nepl13 (Neprilysin-like 13)	1	1.19e5	6592	inactive
83	fs(1)Ya (female sterile (1) Young arrest)	1	1471	892	inactive
84	CG12692	1	1.12e5	5286	inactive
